Experimental data taken from US8377891 (dated 2013).

How the values were obtained:
[1] = general procedure: peptide synthesis; H-Cys(Trt)-2-ChloroTrityl resin (0.6 mmoles/gm); HBTU/NMM; settings: acetate
[2] = general procedure: peptide synthesis; H-Cys(Trt)-2-Chlorotrityl resin; HBTU/NMM; settings: whole synthesis, scale 10 mmole, acetate

Question: Which oxidative folding yield ([1]; oxidative folding step) does the source give for “[dF]CF[dW]KTC-OH (cysteine pairing not given here)” here?
Answer: The oxidative folding yield was greater than 95%.

Question: What does the source list for “Boc-D-Phe-Cys(Trt)-Phe-D-Trp-Lys(Boc)-Thr(OBut)-Cys(Trt)-Thr-OL”?
Answer: step yield ([1]; coupling step): >95%; crude HPLC purity ([1]; coupling step, analytical RP-HPLC): 81.38%

Question: Which crude yield [2] does the source give for “Boc-D-Phe-Cys(Trt)-Phe-D-Trp-Lys(Boc)-Thr(OBut)-Cys(Trt)-2-Chlorotrityl resin” here?
Answer: Its crude yield is greater than 90%.

Question: Which step yield ([1]; late stage modification step) does the source give for D-Phe-Cys-Phe-D-Trp-Lys-Thr-Cys-Thr-OL here?
Answer: Its step yield is greater than 95%.

Question: Which results are given for “Boc-D-Phe-Cys(Trt)-Phe-D-Trp-Lys(Boc)-Thr(OBut)-Cys(Trt)-OH”?
Answer: crude HPLC purity ([1]; whole synthesis, analytical RP-HPLC, scale of the general procedure 10 mmole): 88.64%; crude yield ([1]; whole synthesis, scale of the general procedure 10 mmole): >95%

Question: For octreotide, which oxidative folding yield ([1]; oxidative folding step, run 1) is on record?
Answer: Its oxidative folding yield is “(45%)”.

Question: What about the oxidative folding yield ([1]; oxidative folding step, run 2) of the same substance?
Answer: The oxidative folding yield was greater than 95%.

Question: What about the “crude HPLC purity” value ([1]; oxidative folding step, analytical RP-HPLC, run 1) of the same substance?
Answer: The value was 70.5%.

Question: And the “crude HPLC purity” value ([1]; oxidative folding step, analytical RP-HPLC, run 2)?
Answer: Its value is 44.25%.

Question: What about the step yield ([1]; purification step) of the same substance?
Answer: The step yield was 70% or above.

Question: And the “final HPLC purity” value ([1]; purification step, analytical RP-HPLC)?
Answer: The value was greater than 99%.

Square brackets hold non-standard residues; d marks the D form. Ends that are not written are not given here.
